This is one part of the list.
The targets below were run with COc1ccc(Cn2ccc3cc(C)c(C(=O)NO)cc32)cc1 (assay: dose-dependent thermal stabilisation call (2D-TPP, DLPTP, 10% FDR) (binary (1 = stabilised)); higher = stabilised by the compound). Conditions: system: HL-60 intact cells; concentration range 0.04-10 µM.
Procedure: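 2D thermal proteome profiling in intact HL-60 cells treated with BRD-3811 (0, 0.04, 0.29, 2, 10 uM) for 90 min at 37 C, then heated 3 min at one of 12 temperatures (42-63.9 C). Soluble protein was quantified by TMT10 MS. The value is the DLPTP call of the paper: dose-dependent thermal stabilisation over all temperatures at 10% FDR (F-test of a dose-response against a flat model); one experiment, one call per tested protein.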

The chains behind the UniProt entries cited, without tags or fusion partners. Where a name states a change or a piece, a line headed by the entry shows the natural chain unless it says otherwise.
UniProt Q13561, whole entry: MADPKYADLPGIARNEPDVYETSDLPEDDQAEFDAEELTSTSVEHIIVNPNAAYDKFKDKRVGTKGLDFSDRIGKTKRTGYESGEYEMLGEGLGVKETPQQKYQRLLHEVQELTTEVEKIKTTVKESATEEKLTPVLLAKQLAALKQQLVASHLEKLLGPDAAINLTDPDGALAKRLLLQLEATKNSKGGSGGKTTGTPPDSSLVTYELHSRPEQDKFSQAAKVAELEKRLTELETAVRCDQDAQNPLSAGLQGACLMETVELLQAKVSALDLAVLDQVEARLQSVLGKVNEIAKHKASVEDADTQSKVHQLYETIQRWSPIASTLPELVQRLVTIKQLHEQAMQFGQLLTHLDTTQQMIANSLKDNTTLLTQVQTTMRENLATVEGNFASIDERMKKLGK
UniProt Q6UX07: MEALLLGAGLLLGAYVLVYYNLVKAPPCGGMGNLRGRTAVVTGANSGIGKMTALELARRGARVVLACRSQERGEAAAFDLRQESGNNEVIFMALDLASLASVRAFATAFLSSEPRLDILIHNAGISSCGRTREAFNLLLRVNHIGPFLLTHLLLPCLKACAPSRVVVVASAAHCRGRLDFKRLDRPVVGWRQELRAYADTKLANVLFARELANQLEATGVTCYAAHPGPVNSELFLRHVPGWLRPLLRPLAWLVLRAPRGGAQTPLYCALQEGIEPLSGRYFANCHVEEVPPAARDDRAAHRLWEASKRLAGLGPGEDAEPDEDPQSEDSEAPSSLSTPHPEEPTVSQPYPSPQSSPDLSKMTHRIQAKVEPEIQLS
UniProt O60762: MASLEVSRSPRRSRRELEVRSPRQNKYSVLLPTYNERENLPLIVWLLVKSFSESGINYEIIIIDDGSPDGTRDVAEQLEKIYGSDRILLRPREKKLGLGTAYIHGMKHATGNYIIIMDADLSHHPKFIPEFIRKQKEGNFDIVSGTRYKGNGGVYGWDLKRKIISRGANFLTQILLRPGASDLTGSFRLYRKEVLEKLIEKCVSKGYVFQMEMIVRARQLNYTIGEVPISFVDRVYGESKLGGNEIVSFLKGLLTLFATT
UniProt Q9H467: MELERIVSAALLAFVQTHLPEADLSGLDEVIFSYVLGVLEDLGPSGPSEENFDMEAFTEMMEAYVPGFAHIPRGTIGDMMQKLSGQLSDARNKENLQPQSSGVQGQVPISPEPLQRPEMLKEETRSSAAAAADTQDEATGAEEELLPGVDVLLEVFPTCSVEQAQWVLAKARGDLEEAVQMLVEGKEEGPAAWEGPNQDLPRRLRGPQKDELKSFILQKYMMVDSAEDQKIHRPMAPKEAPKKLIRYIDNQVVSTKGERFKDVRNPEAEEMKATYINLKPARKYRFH
UniProt Q9P2X0: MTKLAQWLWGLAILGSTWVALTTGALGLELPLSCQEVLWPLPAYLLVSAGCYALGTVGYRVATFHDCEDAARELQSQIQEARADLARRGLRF
UniProt P52429: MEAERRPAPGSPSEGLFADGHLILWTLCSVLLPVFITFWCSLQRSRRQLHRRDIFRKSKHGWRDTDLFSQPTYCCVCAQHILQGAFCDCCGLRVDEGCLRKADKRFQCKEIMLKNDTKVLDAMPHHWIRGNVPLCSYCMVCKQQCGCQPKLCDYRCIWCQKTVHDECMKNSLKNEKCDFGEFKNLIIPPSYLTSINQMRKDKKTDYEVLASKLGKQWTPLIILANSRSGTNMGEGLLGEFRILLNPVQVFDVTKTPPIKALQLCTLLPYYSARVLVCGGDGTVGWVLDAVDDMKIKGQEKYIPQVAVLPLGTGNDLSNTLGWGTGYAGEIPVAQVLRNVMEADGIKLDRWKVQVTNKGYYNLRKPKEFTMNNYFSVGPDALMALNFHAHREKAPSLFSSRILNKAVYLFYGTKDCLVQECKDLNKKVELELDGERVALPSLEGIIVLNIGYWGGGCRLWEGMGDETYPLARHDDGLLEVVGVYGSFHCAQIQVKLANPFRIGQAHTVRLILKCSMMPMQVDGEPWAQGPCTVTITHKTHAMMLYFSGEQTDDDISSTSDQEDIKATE
UniProt Q5JSL3: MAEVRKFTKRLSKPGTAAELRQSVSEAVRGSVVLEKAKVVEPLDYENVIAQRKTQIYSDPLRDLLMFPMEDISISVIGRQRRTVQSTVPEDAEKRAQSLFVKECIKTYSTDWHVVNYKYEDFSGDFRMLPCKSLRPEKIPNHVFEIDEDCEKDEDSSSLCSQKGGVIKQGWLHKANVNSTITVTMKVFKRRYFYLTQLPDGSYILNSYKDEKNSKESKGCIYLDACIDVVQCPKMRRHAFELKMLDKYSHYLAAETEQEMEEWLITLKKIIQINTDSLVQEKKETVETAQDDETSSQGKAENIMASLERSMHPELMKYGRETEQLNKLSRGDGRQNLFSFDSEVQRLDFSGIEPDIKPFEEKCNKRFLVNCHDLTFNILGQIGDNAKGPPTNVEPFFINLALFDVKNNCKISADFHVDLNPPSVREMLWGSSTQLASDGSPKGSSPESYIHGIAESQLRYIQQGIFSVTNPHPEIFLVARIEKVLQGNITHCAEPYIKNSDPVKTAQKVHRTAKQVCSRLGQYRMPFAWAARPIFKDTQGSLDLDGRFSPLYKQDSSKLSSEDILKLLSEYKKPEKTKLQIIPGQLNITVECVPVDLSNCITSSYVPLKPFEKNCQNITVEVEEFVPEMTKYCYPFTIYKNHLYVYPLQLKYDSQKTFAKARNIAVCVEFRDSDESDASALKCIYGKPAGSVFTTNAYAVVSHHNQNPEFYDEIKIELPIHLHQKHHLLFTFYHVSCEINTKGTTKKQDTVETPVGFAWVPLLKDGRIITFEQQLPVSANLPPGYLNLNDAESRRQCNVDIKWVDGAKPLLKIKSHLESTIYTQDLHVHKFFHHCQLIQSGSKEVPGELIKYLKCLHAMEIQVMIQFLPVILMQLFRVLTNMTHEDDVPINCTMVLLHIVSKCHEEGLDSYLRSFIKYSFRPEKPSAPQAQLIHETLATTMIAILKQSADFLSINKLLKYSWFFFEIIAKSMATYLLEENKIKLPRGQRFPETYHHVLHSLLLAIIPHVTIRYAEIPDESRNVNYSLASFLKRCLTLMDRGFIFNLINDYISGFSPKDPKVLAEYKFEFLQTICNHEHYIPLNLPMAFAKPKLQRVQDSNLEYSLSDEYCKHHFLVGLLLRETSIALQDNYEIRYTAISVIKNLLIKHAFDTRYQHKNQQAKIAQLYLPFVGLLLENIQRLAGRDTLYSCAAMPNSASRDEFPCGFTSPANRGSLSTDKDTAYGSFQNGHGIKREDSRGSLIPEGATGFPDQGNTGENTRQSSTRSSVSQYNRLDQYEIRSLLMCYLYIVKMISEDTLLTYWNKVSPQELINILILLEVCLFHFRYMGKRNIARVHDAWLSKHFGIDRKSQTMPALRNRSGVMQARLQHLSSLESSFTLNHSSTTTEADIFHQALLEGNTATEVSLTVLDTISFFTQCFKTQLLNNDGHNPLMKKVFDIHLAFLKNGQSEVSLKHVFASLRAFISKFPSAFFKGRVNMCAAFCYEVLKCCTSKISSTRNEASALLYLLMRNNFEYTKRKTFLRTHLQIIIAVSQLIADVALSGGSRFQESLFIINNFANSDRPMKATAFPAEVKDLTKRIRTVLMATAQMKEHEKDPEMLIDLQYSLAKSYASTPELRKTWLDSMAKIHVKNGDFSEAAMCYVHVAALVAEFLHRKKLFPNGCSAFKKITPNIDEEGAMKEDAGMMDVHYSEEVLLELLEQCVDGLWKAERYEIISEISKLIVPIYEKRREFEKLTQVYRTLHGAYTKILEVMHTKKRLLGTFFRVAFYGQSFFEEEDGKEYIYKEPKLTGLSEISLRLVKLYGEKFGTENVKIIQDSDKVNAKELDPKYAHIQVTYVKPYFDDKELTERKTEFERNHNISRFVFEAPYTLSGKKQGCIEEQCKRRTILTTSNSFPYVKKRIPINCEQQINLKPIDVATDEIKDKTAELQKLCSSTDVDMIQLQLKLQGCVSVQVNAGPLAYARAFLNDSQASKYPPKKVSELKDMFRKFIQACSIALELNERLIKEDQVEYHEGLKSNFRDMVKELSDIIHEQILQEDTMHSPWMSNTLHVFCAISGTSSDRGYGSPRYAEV
UniProt Q5T1V6: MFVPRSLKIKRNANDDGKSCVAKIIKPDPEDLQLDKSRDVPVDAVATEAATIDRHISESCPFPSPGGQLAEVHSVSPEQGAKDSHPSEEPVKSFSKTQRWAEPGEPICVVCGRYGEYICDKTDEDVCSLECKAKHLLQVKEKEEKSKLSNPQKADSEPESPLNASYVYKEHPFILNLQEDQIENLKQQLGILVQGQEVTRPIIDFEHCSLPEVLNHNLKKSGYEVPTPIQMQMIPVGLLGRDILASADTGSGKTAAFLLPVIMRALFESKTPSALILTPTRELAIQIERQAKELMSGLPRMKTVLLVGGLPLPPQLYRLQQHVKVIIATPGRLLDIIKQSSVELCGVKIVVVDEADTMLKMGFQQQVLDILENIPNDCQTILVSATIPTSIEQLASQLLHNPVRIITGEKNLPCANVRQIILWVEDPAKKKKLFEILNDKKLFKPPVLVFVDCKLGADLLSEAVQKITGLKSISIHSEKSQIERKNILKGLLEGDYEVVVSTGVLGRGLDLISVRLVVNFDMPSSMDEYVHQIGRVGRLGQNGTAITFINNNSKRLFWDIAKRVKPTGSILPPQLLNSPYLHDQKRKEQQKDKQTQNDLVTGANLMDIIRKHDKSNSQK
UniProt P23743: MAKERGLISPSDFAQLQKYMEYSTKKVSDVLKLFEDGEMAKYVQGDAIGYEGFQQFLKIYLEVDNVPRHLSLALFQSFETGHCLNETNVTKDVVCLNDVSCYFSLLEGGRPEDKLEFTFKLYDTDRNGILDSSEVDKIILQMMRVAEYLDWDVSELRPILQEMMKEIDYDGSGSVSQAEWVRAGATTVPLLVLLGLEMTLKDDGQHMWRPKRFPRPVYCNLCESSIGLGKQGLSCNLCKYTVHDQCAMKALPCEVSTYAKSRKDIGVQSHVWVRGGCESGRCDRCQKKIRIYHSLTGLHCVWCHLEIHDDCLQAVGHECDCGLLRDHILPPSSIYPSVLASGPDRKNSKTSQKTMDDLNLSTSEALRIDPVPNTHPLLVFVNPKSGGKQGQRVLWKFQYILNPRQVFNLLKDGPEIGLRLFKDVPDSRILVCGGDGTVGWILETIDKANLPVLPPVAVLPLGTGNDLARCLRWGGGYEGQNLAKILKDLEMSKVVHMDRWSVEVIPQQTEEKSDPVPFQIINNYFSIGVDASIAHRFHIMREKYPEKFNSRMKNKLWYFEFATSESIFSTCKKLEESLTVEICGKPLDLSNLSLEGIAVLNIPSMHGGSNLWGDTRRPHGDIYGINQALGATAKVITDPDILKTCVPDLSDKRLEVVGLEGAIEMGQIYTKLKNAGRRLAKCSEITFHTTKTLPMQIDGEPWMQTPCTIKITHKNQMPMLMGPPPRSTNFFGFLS
UniProt P81605: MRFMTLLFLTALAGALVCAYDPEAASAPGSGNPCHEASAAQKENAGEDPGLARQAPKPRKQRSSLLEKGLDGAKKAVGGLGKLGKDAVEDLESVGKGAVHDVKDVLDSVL
UniProt Q13206, whole entry: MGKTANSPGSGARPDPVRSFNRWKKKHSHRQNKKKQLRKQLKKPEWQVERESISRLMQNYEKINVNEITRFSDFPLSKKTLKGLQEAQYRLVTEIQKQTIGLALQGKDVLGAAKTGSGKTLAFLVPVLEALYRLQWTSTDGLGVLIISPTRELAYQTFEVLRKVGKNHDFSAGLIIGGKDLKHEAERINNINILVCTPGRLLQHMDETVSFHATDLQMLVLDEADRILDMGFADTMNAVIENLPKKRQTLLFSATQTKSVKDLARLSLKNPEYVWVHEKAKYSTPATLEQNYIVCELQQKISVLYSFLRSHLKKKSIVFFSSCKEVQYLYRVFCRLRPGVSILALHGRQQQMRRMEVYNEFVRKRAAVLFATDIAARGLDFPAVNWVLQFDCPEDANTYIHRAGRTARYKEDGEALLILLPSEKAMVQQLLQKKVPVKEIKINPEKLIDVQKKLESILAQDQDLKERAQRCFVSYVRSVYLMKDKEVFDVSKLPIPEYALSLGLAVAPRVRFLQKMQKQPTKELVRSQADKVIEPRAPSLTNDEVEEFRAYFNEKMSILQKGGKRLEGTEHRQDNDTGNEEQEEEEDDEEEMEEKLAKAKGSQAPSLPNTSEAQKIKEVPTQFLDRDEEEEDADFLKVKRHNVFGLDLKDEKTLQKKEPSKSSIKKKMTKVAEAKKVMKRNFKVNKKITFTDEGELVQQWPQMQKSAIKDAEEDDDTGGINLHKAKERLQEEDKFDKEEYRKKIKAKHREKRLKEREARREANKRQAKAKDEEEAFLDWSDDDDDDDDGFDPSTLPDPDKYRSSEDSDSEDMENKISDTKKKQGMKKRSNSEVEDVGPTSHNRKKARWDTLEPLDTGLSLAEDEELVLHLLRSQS
UniProt P13498: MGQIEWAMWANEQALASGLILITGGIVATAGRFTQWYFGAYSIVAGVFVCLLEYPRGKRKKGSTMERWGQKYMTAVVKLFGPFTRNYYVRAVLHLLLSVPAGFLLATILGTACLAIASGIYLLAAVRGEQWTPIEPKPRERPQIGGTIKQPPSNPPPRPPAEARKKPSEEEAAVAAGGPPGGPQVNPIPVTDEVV

| Target | dose-dependent thermal stabilisation call |
| --- | --- |
| DHX34 (UniProt Q14147) | inactive: 0 |
| DCTN2 (UniProt Q13561) | inactive: 0 |
| DARS (UniProt P14868) | inactive: 0 |
| DHRS13 (UniProt Q6UX07) | inactive: 0 |
| DPM1 (UniProt O60762) | inactive: 0 |
| CUEDC2 (UniProt Q9H467) | inactive: 0 |
| CTSB (UniProt P07858) | inactive: 0 |
| CUL4A (UniProt Q13619) | inactive: 0 |
| DPM3 (UniProt Q9P2X0) | inactive: 0 |
| DPH5 (UniProt Q9H2P9) | inactive: 0 |
| DNAJC17 (UniProt Q9NVM6) | inactive: 0 |
| DHX35 (UniProt Q9H5Z1) | inactive: 0 |
| DNAJB6 (UniProt O75190) | inactive: 0 |
| DGKE (UniProt P52429) | inactive: 0 |
| DHX16 (UniProt O60231) | inactive: 0 |
| DACH1 (UniProt Q9UI36) | inactive: 0 |
| DOCK11 (UniProt Q5JSL3) | inactive: 0 |
| DDX5 (UniProt P17844) | inactive: 0 |
| DENND1A (UniProt Q8TEH3) | inactive: 0 |
| DNA2 (UniProt P51530) | inactive: 0 |

| Target | dose-dependent thermal stabilisation call |
| --- | --- |
| DDX59 (UniProt Q5T1V6) | inactive: 0 |
| DCP2 (UniProt Q8IU60) | inactive: 0 |
| DPF2 (UniProt Q92785) | inactive: 0 |
| CXORF38 (UniProt Q8TB03) | inactive: 0 |
| DNTTIP2 (UniProt Q5QJE6) | inactive: 0 |
| DGKA (UniProt P23743) | inactive: 0 |
| DNAJB12 (UniProt Q9NXW2) | inactive: 0 |
| DDAH1 (UniProt O94760) | inactive: 0 |
| DJ-1 | inactive: 0 |
| DDX39 (UniProt O00148) | inactive: 0 |
| DPY19L4 (UniProt Q7Z388) | inactive: 0 |
| DCXR (UniProt Q7Z4W1) | inactive: 0 |
| DCTN5 (UniProt Q9BTE1) | inactive: 0 |
| DCD (UniProt P81605) | inactive: 0 |
| DDX10 (UniProt Q13206) | inactive: 0 |
| DDX27 (UniProt Q96GQ7) | inactive: 0 |
| DDX23 (UniProt Q9BUQ8) | inactive: 0 |
| CYBA (UniProt P13498) | inactive: 0 |
| DNPEP (UniProt Q9ULA0) | inactive: 0 |
| CTR9 (UniProt Q6PD62) | inactive: 0 |

3 entries from above, set out differently.
Target | dose-dependent thermal stabilisation call
DDAH1 (UniProt O94760) | inactive: 0
DDX10 (UniProt Q13206) | inactive: 0
DNPEP (UniProt Q9ULA0) | inactive: 0

Reference: the supplement of paper PMC7666118
